According to paper PMC11039992:
Results are given in words; binding and its absence hold for the method and conditions named. In cells and extracts the contact can be indirect. Some entries that bind do so weakly or less than the wild type. For part of these data: Tags and fused reporters may be left off the sequences shown.

Protein sequences, listed by entry. Tags and fused reporters are not part of them.
UniProt Q8TBF4: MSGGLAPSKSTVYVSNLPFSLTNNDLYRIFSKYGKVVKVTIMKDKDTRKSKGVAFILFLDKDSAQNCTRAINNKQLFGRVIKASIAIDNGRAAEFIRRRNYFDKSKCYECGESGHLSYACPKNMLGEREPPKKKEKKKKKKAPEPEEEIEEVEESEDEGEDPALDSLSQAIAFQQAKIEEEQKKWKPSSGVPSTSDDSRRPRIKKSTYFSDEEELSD

Experiments:
[1] = target: T1, RBM41 (endogenous, HeLa nuclear extract) (human (endogenous in HeLa)) (UniProt Q96IZ5); assay: co-sedimentation; 10–30% glycerol gradient of HeLa S3 nuclear extract, 29 000 rpm, 4°C, 18 h; fractions analysed by western and northern blot
T1 sequence: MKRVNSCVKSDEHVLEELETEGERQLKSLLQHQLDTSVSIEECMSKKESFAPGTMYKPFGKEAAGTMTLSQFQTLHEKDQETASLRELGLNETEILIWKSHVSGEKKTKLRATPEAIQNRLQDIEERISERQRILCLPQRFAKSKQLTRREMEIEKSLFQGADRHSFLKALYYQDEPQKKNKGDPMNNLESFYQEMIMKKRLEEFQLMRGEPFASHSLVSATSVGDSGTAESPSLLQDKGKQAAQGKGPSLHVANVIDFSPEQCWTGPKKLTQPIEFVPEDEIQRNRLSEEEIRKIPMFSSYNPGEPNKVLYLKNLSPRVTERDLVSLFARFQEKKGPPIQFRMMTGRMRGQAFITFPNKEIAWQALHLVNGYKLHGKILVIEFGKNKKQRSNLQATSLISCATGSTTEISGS

V5-RBM41 (human) = target: T2, V5-RBM41 (human) (UniProt Q96IZ5); assay: co-IP; anti-V5 or control antibody crosslinked (BS3) to Dynabeads Protein G; lysate of Flp-In T-REx 293 cell lines expressing V5-RBM41 or V5-65K; lysis buffer 20 mM HEPES pH 7.9, 137 mM NaCl, 10% glycerol, 1% NP-40; western blot
T2 sequence: T1 sequence

V5-65K (human) = target: T3, V5-65K (human) (UniProt Q96LT9); assay: as above
T3 sequence: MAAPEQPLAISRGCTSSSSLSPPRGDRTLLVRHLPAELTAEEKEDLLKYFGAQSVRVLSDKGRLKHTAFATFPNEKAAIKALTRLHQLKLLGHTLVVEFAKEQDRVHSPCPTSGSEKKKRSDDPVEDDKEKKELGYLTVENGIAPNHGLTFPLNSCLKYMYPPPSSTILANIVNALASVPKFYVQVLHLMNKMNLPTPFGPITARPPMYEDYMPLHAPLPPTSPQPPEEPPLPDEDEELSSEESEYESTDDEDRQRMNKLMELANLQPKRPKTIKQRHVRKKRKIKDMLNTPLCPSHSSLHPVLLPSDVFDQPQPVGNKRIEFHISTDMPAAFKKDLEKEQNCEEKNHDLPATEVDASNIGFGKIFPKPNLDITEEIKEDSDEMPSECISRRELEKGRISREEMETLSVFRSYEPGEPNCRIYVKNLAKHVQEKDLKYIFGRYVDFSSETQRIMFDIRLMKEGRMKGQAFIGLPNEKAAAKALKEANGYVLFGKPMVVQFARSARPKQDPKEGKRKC

Measured: binding

U11/U12-31K (ZCRB1) (from UniProt Q8TBF4 1-217)
binds: all assays above
